This experiment can be described thus: qHTS Assay for Lipid Storage Modulators in Drosophila S3 Cells.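 For cell number change: cells counted by Cell Tracker Red CMTPX staining in the red channel.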 Particulars: BODIPY lipid droplet fluorescence, 18-24 h; for cell number change: measured here: cell count max response, cells fed with added oleic acid. The procedure, abridged:
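Drosophila S3 cells loaded with oleic acid (400 uM, as added) and compounds at several concentrations; lipid droplets imaged by 488-nm laser-scanning cytometry, 500–530 nm intensity and object ratio to cell channel. Percent activity normalized to 20 uM Triacsin C.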
(Quantitative high-throughput screening tests each substance at several concentrations.)

[1] abbreviates: measured here: cell number channel AC50, cells fed with added oleic acid.
Where [2] appears, read: measured here: lipid fluorescence (Fed channel) AC50, cells fed with added oleic acid.

The other results are listed elsewhere or left out. The main result of the screen is listed elsewhere. These columns were measured beside it and carry no call. Most of these compounds were active or inconclusive in the main read-out, so they are no random draw. Words in brackets tell the shape of the fitted curve; partial curves, single points and poor fits give uncertain potencies.

Data on 36 molecules can be found in PubChem BioAssay AID2685 (National Center for Advancing Translational Sciences (NCATS), 2010).

Usually AC50 stands for the midpoint of the concentration-response curve, whichever way the signal moves. Read a low AC50 as activity at low concentration.

`NC(=O)C1CCN(C(=O)c2cc3ccccc3cc2O)CC1`: the cell number change stood at 47.9%. The AC50 under setting [1] was 29.1 µM [rising, single point].
As to `CC1(C)CC(=O)C2=C(C1)OC(N)=C(C#N)C21C(=O)N2CCCc3cccc1c32` (stereo not drawn), under setting [1], the AC50 was 1.3 µM [rising, partial curve, poor fit].
Turning to `O=[N+]([O-])c1cc(NS(=O)(=O)c2ccc(Cl)nc2)ccc1Cl`, the cell number change was -6.09%. Further, the AC50 under setting [2] is 6.51 µM [rising, single point].
With `CCn1c(CNc2ccc(Cl)cc2)nnc1SCC(=O)NCc1ccccc1`, the cell number change was -12.8%. Further, the AC50 under setting [2] is 18.4 µM [rising, single point].
For the molecule `O=C(COC(=O)c1cnccn1)c1ccc([N+](=O)[O-])cc1`, the cell number change is -19.7%. Moreover, the AC50 under setting [1] is 6.51 µM [falling, single point].
Regarding `COc1ccc(-n2c(-c3ccc(F)cc3)cnc2SCC(=O)NCc2ccco2)cc1`, the cell number change was -0.885%. In addition, the AC50 under setting [2] was 20.6 µM [rising, partial curve].
As to `Cn1ccnc1C1CCCCN1C(=O)c1cc(COc2ccc(F)cc2F)on1` (stereo not drawn), the cell number change stood at 17.3%. Moreover, the AC50 under setting [2] was 0.651 µM [rising, full curve, poor fit].
For the molecule `COc1ccc(OCC(=O)Nc2ccc(S(=O)(=O)Nc3cc(C)nc(C)n3)cc2)cc1`, the cell number change is -47.9%. Besides, under setting [1], the concentration at half-maximal activity (AC50) was 18.4 µM [falling, single point].
In the case of `CCC(C)NCCCCOc1ccc(Br)cc1` (stereo not drawn), the cell number change turned out to be 42.2%. For the same molecule, the AC50 under setting [1] is 16.4 µM [rising, single point]. Further, under setting [2], the AC50 was 5.17 µM [rising, partial curve, poor fit].
`COc1ccccc1NC(=O)c1cnc(Nc2ccccc2OC)c2ccccc12`: the cell number change was 3.94%. Besides, under setting [2], the AC50 is 5.8 µM [rising, full curve].
Regarding `CCCCC1(C)OC(=O)C(=Cc2ccc(SC)cc2)C(=O)O1` (stereo not drawn), the cell number change was 32.2%. Further, the AC50 under setting [1] is 0.146 µM [rising, full curve]. Moreover, under setting [2], the AC50 is 0.146 µM [rising, full curve, poor fit].
For the molecule `C/C(=C/c1ccccc1)C(=O)N1CCC(C)CC1`, the cell number change is -11.3%.
Regarding `Cc1ccc(NC(=O)NC2CC(=O)N(c3ccc4c(c3)OCCO4)C2)cc1F` (stereo not drawn), under setting [1], the AC50 was 2.59 µM [rising, partial curve, poor fit].
Consider `CCOC(=O)c1c(C)[nH]c(C)c1S(=O)(=O)N(C)CC(=O)Nc1cc(C)ccc1OC`, for which the cell number change was found to be 2.09%. Moreover, the AC50 under setting [2] is 0.326 µM [falling, partial curve, poor fit].
For `CCN1CCN(c2cc3nc(C)n(Cc4ccccc4)c(=O)c3cc2NC(=O)c2ccccc2F)CC1`, the cell number change is -51.6%. Besides, under setting [1], the AC50 was 6.51 µM [falling, full curve]. The AC50 under setting [2] is 7.31 µM [falling, partial curve].
With `Cc1cccc(N(Cc2ccccc2)C(=O)C2CCN(C(=O)c3ccccc3C)CC2)c1`, the cell number change is -5.53%. Also, the AC50 under setting [2] is 29.1 µM [falling, single point].
For the molecule `CN1C(=O)c2ccccc2C(C(=O)NCc2ccco2)C1c1c[nH]c2ccccc12` (stereo not drawn), the cell number change is -39.2%. Besides, the AC50 under setting [1] is 32.6 µM [falling, single point]. The AC50 under setting [2] is 0.731 µM [rising, single point].
Take `Cc1cc(NC(=O)c2ccco2)ncc1NC(=O)Cc1ccccc1`: the cell number change is 7.85%. Under setting [2], the AC50 is 0.231 µM [rising, full curve, poor fit].
In the case of `CCc1c(C)nc2ncnn2c1N1CCC(C(=O)NCc2ccc3c(c2)OCO3)CC1`, the cell number change is 9.49%. Moreover, under setting [2], the AC50 is 1.16 µM [rising, full curve, poor fit].
On to `O=S(=O)(NCc1csc(-c2cccnc2)n1)c1cccs1`, for which the AC50 under setting [2] is 0.651 µM [rising, single point].
`COC(CNC(=O)C(=O)Nc1ccc2c(c1)N(S(=O)(=O)c1cccs1)CCC2)OC`: the cell number change was 49.5%. Moreover, the AC50 under setting [1] is 16.4 µM [rising, single point].
In the case of `O=C(CSc1nc2ccccc2c(=O)n1CCCN1CCOCC1)N1CCN(c2ccccc2)CC1`, the cell number change was 39.5%. Also, the AC50 under setting [1] is 29.1 µM [rising, single point]. Moreover, the AC50 under setting [2] is 6.51 µM [falling, partial curve, poor fit].
With `CCC(C)[C@H]1CNCCN1CCc1cccc2ccccc12` (stereo partly drawn), the cell number change was -14.6%. Also, the AC50 under setting [2] is 6.51 µM [rising, single point].
On to `Cc1cc(OC(=O)c2cc(Cl)ccc2Cl)c([N+](=O)[O-])c(=O)[nH]1`, for which the cell number change amounted to 27.8%. In addition, the AC50 under setting [2] was 0.731 µM [falling, full curve].
Take `CCOc1ccc(CCNC(=O)CCOc2cc(C)ccc2C)cc1OCC`: the cell number change worked out at 8.33%.
`CCOC(=O)c1c(S(=O)(=O)N(C)Cc2ccco2)c(C)n(C)c1C`: the cell number change came out at 7.55%. The AC50 under setting [2] is 6.51 µM [falling, single point].
On to `Cn1c(CN2CCCC2)nc2cc(NC(=O)COc3ccc(Cl)cc3)ccc21`, for which the cell number change is 11.6%. Under setting [2], the AC50 is 5.17 µM [rising, single point].
On to `CC1CCCCC1NC(=O)c1c(O)nc2ccccn2c1=O` (stereo not drawn), for which the cell number change is -33.9%. Further, the AC50 under setting [1] is 32.6 µM [falling, single point]. The AC50 under setting [2] was 29.1 µM [falling, single point].
As to `COc1cccc(-c2nc(CS(=O)(=O)CC(=O)Nc3ccccc3Br)c(C)o2)c1`, the cell number change was found to be 11.8%. In addition, under setting [2], the AC50 is 23.1 µM [falling, single point].
As for `Cc1cc(NCCN2CCOCC2)n2ncc(-c3ccccc3)c2n1`, the AC50 was 5.17 µM [rising, single point] under setting [1] and 0.103 µM [falling, full curve, poor fit] under setting [2].
Turning to `Cc1ccc(C(=O)n2nc(-c3cccnc3)nc2N)cc1`, the cell number change is -0.806%. Further, the AC50 under setting [1] was 0.517 µM [rising, full curve].
Turning to `Cc1nn(-c2ccc(N3CCOCC3)nn2)c(C)c1CCC(=O)NCc1ccccc1F`, the cell number change is -17.1%. Also, the AC50 under setting [2] was 0.103 µM [falling, partial curve, poor fit].
On to `COc1ccc(-c2noc(N3CCCC(C(=O)Nc4ccccc4F)C3)n2)cc1` (stereo not drawn), for which the cell number change came out at 28%. Besides, the AC50 under setting [2] is 0.461 µM [rising, full curve, poor fit].
With `O=C(Nc1ccc(Cl)c(-c2nc3ccccc3[nH]2)c1)c1ccc2c(c1)OCO2`, the cell number change was -1.61%. For the same molecule, under setting [1], the AC50 was 6.51 µM [rising, partial curve, poor fit].
Turning to `CCc1nc(SCC(=O)NNC(=O)C(C)C)c2ccccc2n1`, the AC50 by setting is: under setting [1], 6.51 µM [rising, single point]; under setting [2], 6.51 µM [rising, single point].
As for `Cc1cc(C)c(NC(=O)COC(=O)COc2ccc3c(C)cc(=O)oc3c2)c(Cl)c1`, the cell number change was -15.4%. The AC50 under setting [2] was 2.06 µM [rising, partial curve, poor fit].
